We go through 16 compounds from PubChem BioAssay AID220 (DTP/NCI, 2004).

The assay has as its system CD8F1 mice, subcutaneous mammary adenocarcinoma, T/C%. Kind of assay: NCI In Vivo Anticancer Drug Screen. Data for tumor model Mammary Adenocarcinoma CD8F1 (subcutaneous) in CD8F1. The note with it: higher T/C = larger tumour. An outline of the steps:
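Transplantable tumors were established in mice, animals were dosed with compound or vehicle, and survival or tumor size was then measured in both groups. The treated result was divided by the control result.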

The list does not hold the whole screen: it gathers tests that were run many times, whatever their T/C, doses with no T/C, and many T/C values between a quarter and a half above the control. Further doses and runs are listed elsewhere. T/C is the treated group as % of the vehicle group. Schedules are NCI's codes, read here as Q, the interval in days (D) or hours (H), X, the number of doses. Some T/C values are followed by the survivors on the day toxicity was checked, most often the fifth; without a count, all were alive then. Some doses have a count of surviving animals in place of a T/C: the source holds a T/C of zero for them, seemingly a mark for toxic or unscored doses. Counts of survivors are from the toxicity check (mostly the fifth day) where no day follows; animals may have died later. Some entries were tested several times; the results are listed from low to high. Some molecules as drawn cover several salts, stereoisomers or complexes of the source; a dose is that of the sample tested.

Consider `COc1cc(NCc2ccc3nc(N)nc(N)c3c2C)cc(OC)c1OC`, for which the survivor count by setting is: (T/C endpoint: median tumor weight (est.), dose: 80.0 mg/kg/injection, schedule: Q07DX005 (ip), vehicle: saline) 2 of 10 on day 30; (T/C endpoint: median tumor weight (est.), dose: 93.3 mg/kg/injection, schedule: Q04DX007 (ip), vehicle: water) 2 of 8 on day 30; (T/C endpoint: median tumor weight (est.), dose: 106.7 mg/kg/injection, schedule: Q04DX007 (ip), vehicle: water) 0 of 5 on day 30; (T/C endpoint: median tumor weight (est.), dose: 120.0 mg/kg/injection, schedule: Q07DX005 (ip), vehicle: saline) 0 of 10 on day 30; (T/C endpoint: median tumor weight (est.), dose: 120.0 mg/kg/injection, schedule: Q07DX005 (ip), vehicle: suspension in saline) 0 of 10 on day 30; (T/C endpoint: median tumor weight (est.), dose: 140.0 mg/kg/injection, schedule: Q04DX007 (ip), vehicle: water) 0 of 8 on day 30. Besides, the survivor count runs as follows: (T/C endpoint: median tumor weight (est.), dose: 148.0 mg/kg/injection, schedule: Q07DX005 (ip), vehicle: water) 4 of 10 on day 30; (T/C endpoint: median tumor weight (est.), dose: 157.0 mg/kg/injection, schedule: Q07DX005 (ip), vehicle: water) 0 of 10 on day 30; (T/C endpoint: median tumor weight (est.), dose: 160.0 mg/kg/injection, schedule: Q04DX007 (ip), vehicle: water) 0 of 8 on day 30; (T/C endpoint: median tumor weight (est.), dose: 180.0 mg/kg/injection, schedule: Q04DX007 (ip), vehicle: water) 5 of 8 on day 30; (T/C endpoint: median tumor weight (est.), dose: 180.0 mg/kg/injection, schedule: Q07DX005 (ip), vehicle: saline) 0 of 10 on day 30; (T/C endpoint: median tumor weight (est.), dose: 180.0 mg/kg/injection, schedule: Q07DX005 (ip), vehicle: suspension in saline) 0 of 10 on day 30. The survivor count by setting is: (T/C endpoint: median tumor weight (est.), dose: 180.0 mg/kg/injection, schedule: Q07DX005 (ip), vehicle: water) 0 of 10 on day 30, 2 of 10 on day 30, 6 of 10 on day 30; (T/C endpoint: median tumor weight (est.), dose: 210.0 mg/kg/injection, schedule: Q04DX007 (ip), vehicle: water) 0 of 8 on day 30; (T/C endpoint: median tumor weight (est.), dose: 222.0 mg/kg/injection, schedule: Q07DX005 (ip), vehicle: water) 0 of 10 on day 30; (T/C endpoint: median tumor weight (est.), dose: 236.0 mg/kg/injection, schedule: Q07DX005 (ip), vehicle: water) 0 of 10 on day 30; (T/C endpoint: median tumor weight (est.), dose: 240.0 mg/kg/injection, schedule: Q04DX007 (ip), vehicle: water) 0 of 8 on day 30; (T/C endpoint: median tumor weight (est.), dose: 240.0 mg/kg/injection, schedule: Q07DX005 (ip), vehicle: sodium bicarbonate) 1 of 10 on day 30. For the same compound, the survivor count (T/C endpoint: median tumor weight (est.), dose: 270.0 mg/kg/injection, schedule: Q07DX005 (ip), vehicle: water) is 5 of 10 on day 30; the survivor count (T/C endpoint: median tumor weight (est.), dose: 334.0 mg/kg/injection, schedule: Q07DX005 (ip), vehicle: water) was 0 of 10 on day 30; the survivor count (T/C endpoint: median tumor weight (est.), dose: 354.0 mg/kg/injection, schedule: Q07DX005 (ip), vehicle: water) is 0 of 10 on day 30.
As for `Cc1ccc(NCCN(C)C)c2c(=O)c3cc(O)ccc3sc12`, the survivor count is 1 of 10 on day 28 (T/C endpoint: median tumor weight change, dose: 500.0 mg/kg/injection, schedule: Q01DX001 (ip), vehicle: Klucel (hydroxypropylcellulose) (HPC)); 0 of 10 on day 28 and 1 of 10 on day 28 (T/C endpoint: median tumor weight change, dose: 1000.0 mg/kg/injection, schedule: Q01DX001 (ip), vehicle: Klucel (hydroxypropylcellulose) (HPC)); 2 of 10 on day 28 and 3 of 10 on day 28 (T/C endpoint: median tumor weight change, dose: 2000.0 mg/kg/injection, schedule: Q01DX001 (ip), vehicle: Klucel (hydroxypropylcellulose) (HPC)).
Regarding `OCC1OC(n2cnc3c(=S)nc[nH]c32)C(O)C1O` (stereo not drawn), the survivor count (T/C endpoint: median tumor weight (est.), dose: 1600.0 mg/kg/injection, schedule: Q07DX005 (ip), vehicle: saline with Tween-80) is 4 of 10 on day 30.
For the compound `O=C/C(Cl)=C(/Cl)C(=O)O`, the T/C (T/C endpoint: median tumor weight (est.), dose: 20.0 mg/kg/injection, schedule: Q07DX005 (ip), vehicle: saline with Tween-80, evaluated on day 30) was 142 % of control [9 of 10 alive on day 30]. Moreover, the survivor count by setting is: (T/C endpoint: median tumor weight (est.), dose: 40.0 mg/kg/injection, schedule: Q07DX005 (ip), vehicle: saline with Tween-80) 2 of 10 on day 30; (T/C endpoint: median tumor weight (est.), dose: 80.0 mg/kg/injection, schedule: Q07DX005 (ip), vehicle: saline with Tween-80) 0 of 10 on day 30.
With `C=CC(C)NC(=S)NNC(=S)NC` (stereo not drawn), for the setting “T/C endpoint: median tumor weight change, dose: 31.25 mg/kg/injection, schedule: Q01DX001 (ip), vehicle: saline + alcohol, evaluated on day 28”, the T/C was 140 % of control.
Turning to `COc1cc2cc3cc4cc(OC)c(OC)cc4c(C)[n+]3cc2cc1OC` (tested in a mixture with another compound), the survivor count (T/C endpoint: median tumor weight (est.), dose: 400.0 mg/kg/injection, schedule: Q07DX005 (ip), vehicle: saline) is reported as 1 of 10 on day 30.
On to `CC1CC(C)CC(C)C(O)/C(C#N)=C/C=C/CC(C2CCCC2C(=O)O)OC(=O)CC(O)C(C)C1` (stereo not drawn), for which the T/C was 133 % of control (T/C endpoint: median tumor weight (est.), dose: 0.75 mg/kg/injection, schedule: Q07DX005 (ip), vehicle: Klucel (hydroxypropylcellulose) (HPC), evaluated on day 30) and 137 % of control (T/C endpoint: median tumor weight (est.), dose: 1.5 mg/kg/injection, schedule: Q07DX005 (ip), vehicle: Klucel (hydroxypropylcellulose) (HPC), evaluated on day 30).
In the case of `c1ccc([P+](c2ccccc2)(c2ccccc2)c2ccccc2)cc1`, the T/C was 126 % of control (T/C endpoint: median tumor weight (est.), dose: 1.25 mg/kg/injection, schedule: Q04DX005 (ip), vehicle: saline, evaluated on day 30); 145 % of control [9 of 10 alive] (T/C endpoint: median tumor weight (est.), dose: 1.25 mg/kg/injection, schedule: Q07DX004 (ip), vehicle: saline, evaluated on day 30); 136 % of control [8 of 10 alive] (T/C endpoint: median tumor weight (est.), dose: 5.0 mg/kg/injection, schedule: Q07DX004 (ip), vehicle: saline, evaluated on day 30). Moreover, the survivor count (T/C endpoint: median tumor weight (est.), dose: 5.0 mg/kg/injection, schedule: Q07DX005 (ip), vehicle: saline) is listed as 6 of 10.
`CCC1CC2CN(CCc3c([nH]c4ccccc34)C(C(=O)OC)(c3cc4c(cc3OC)N(C)C3C(O)(C(=O)OC)C(OC(C)=O)C5(CC)C=CCN6CCC43C65)C2)C1` (stereo not drawn): the T/C runs as follows: (T/C endpoint: median tumor weight change, dose: 2.5 mg/kg/injection, schedule: Q01DX001 (ip), vehicle: saline, evaluated on day 28) 135 % of control; (T/C endpoint: median tumor weight change, dose: 10.0 mg/kg/injection, schedule: Q01DX001 (ip), vehicle: saline, evaluated on day 28) 130 % of control. The survivor count runs as follows: (T/C endpoint: median tumor weight change, dose: 20.0 mg/kg/injection, schedule: Q01DX001 (ip), vehicle: saline) 5 of 10 on day 39; (T/C endpoint: median tumor weight change, dose: 40.0 mg/kg/injection, schedule: Q01DX001 (ip), vehicle: saline) 1 of 10 on day 39; (T/C endpoint: median tumor weight change, dose: 80.0 mg/kg/injection, schedule: Q01DX001 (ip), vehicle: saline) 0 of 10 on day 39.
On to `BrCC[Se]c1ccccc1`, for which the T/C (T/C endpoint: median tumor weight (est.), dose: 100.0 mg/kg/injection, schedule: Q07DX005 (ip), vehicle: saline with Tween-80, evaluated on day 30) is 145 % of control. The survivor count (T/C endpoint: median tumor weight (est.), dose: 200.0 mg/kg/injection, schedule: Q07DX005 (ip), vehicle: saline with Tween-80) is recorded as 0 of 10 on day 30.
As to `CC(C)CCC(=O)c1ccoc1`, the survivor count is, setting by setting: (T/C endpoint: median tumor weight change, dose: 2.5 mg/kg/injection, schedule: Q03HX003 (ip), vehicle: saline with Tween-80) 0 of 10 on day 25; (T/C endpoint: median tumor weight change, dose: 5.0 mg/kg/injection, schedule: Q03HX003 (ip), vehicle: saline with Tween-80) 0 of 10 on day 25.
`Nc1n[n+](-c2ccc(Cl)cc2)no1`: the survivor count (T/C endpoint: median tumor weight (est.), dose: 50.0 mg/kg/injection, schedule: Q07DX005 (ip), vehicle: water) is 3 of 10.
In the case of `CC1=C(O)C(=O)[C@@H]2O[C@@H]2C1=O`, the survivor count is on record as 0 of 10 on day 36 (T/C endpoint: median tumor weight change, dose: 62.5 mg/kg/injection, schedule: Q01DX001 (ip), vehicle: saline) and 0 of 10 on day 36 (T/C endpoint: median tumor weight change, dose: 125.0 mg/kg/injection, schedule: Q01DX001 (ip), vehicle: saline).
With `CN=C(N)N/N=C(\C)c1ccc2c(c1)Cc1cc(/C(C)=N/NC(N)=NC)ccc1-2`, under “T/C endpoint: median tumor weight change, dose: 3.75 mg/kg/injection, schedule: Q01DX001 (ip), vehicle: saline with Tween-80, evaluated on day 30”, the T/C is 138 % of control. For the same compound, the survivor count by setting is: (T/C endpoint: median tumor weight change, dose: 30.0 mg/kg/injection, schedule: Q01DX001 (ip), vehicle: saline with Tween-80) 2 of 10 on day 30; (T/C endpoint: median tumor weight change, dose: 60.0 mg/kg/injection, schedule: Q01DX001 (ip), vehicle: saline with Tween-80) 0 of 10 on day 30.
Take `Nc1nc(F)nc2c1ncn2C1OC(COP(=O)(O)O)C(O)C1O` (stereo not drawn): where the note is “T/C endpoint: median tumor weight (est.), dose: 400.0 mg/kg/injection, schedule: Q07DX005 (ip), vehicle: suspension in saline”, the survivor count is 1 of 10 on day 30.
Turning to `COC12C(COC(=O)NCCO)C3=C(C(=O)C(C)=C(N)C3=O)N1CC1NC12` (stereo not drawn), the survivor count (T/C endpoint: median tumor weight change, dose: 200.0 mg/kg/injection, schedule: Q01DX001 (ip), vehicle: Klucel (hydroxypropylcellulose) (HPC)) is 1 of 10 on day 31.
